The nature of this assay: qHTS Assay for Modulators of Lamin A Splicing. As to conditions: HeLa LMNA splicing GFP/RFP minigene ratio, 48 h. In a few lines:
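S3 HeLa cells stably expressing lamin A-EGFP splicing minigene plus DsRed2, 600 cells/well, 48 h compound exposure at 37C. Laser-scanning cytometry; analysed as GFP (500-530 nm)/RFP (575-640 nm) total intensity ratio; 0.5% DMSO vehicle.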
(In general: Quantitative high-throughput screening tests each substance at several concentrations.)

The mark [1] stands for this setting: measured here: RFP viability control channel.
[2] abbreviates: measured here: GFP splicing reporter channel.

The list shows a part of the results. Further columns of the screen follow, without active or inactive calls. The list favours compounds with an active or inconclusive main result. The note in brackets gives the kind of curve behind each potency; many fits are weak.

As usually defined, the AC50 is the concentration at which the activity in the assay is half-maximal.

On to `O=C(Nc1cccc(Cl)c1)N(CCN1CCOCC1)Cc1cccc(Cl)c1`, for which the AC50 under setting [1] was 35.5 µM [rising, single point].
With `Cc1ccc(S(=O)(=O)c2c(C(=O)c3ccccc3)cnc3cc4c(cc23)OCCO4)cc1`, the AC50 under setting [1] was 5.01 µM [rising, full curve].
Regarding `CC1(C)C(=O)OC(/C=C\c2ccccc2)C(C)(C)C1=O` (stereo unspecified), the AC50 under setting [1] is 3.98 µM [rising, partial curve, poor fit].
`COc1ccc(NC(=O)Nc2nc3c(s2)CCCC3)cc1`: the AC50 under setting [1] is 11.2 µM [rising, partial curve].
Turning to `Cc1nn(C)cc1CN(C)Cc1ccc(OCC(O)CN2CCCCC2)cc1` (stereo unspecified), the AC50 by setting is: under setting [2], 0.0224 µM [rising, full curve, poor fit]; under setting [1], 0.0224 µM [rising, full curve, poor fit].
Regarding `O=C(CSc1nc(-c2ccccc2)cs1)Nc1cccc([N+](=O)[O-])c1`, the AC50 under setting [1] was 3.55 µM [rising, single point].
Consider `Cc1ccc(C(=O)Nc2ccc(S(=O)(=O)O)c3cc(S(=O)(=O)O)cc(S(=O)(=O)O)c23)cc1NC(=O)c1cccc(NC(=O)Nc2cccc(C(=O)Nc3cc(C(=O)Nc4ccc(S(=O)(=O)O)c5cc(S(=O)(=O)O)cc(S(=O)(=O)O)c45)ccc3C)c2)c1`, for which the AC50 under setting [2] was 0.708 µM [rising, full curve].
For `Cn1cc(C2=C(c3ccc(Cl)cc3Cl)C(=O)NC2=O)c2ccccc21`, the AC50 runs as follows: under setting [2], 12.6 µM [falling, partial curve, poor fit]; under setting [1], 6.31 µM [rising, full curve].
As to `CCn1c(O)c(N=NC(=S)NCC2CCCO2)c2ccccc21` (stereo unspecified), the AC50 under setting [2] was 2.51 µM [rising, full curve, poor fit] and the AC50 under setting [1] was 35.5 µM [rising, single point].
`O=c1cc(O)nc(SCc2ccccc2)n1-c1ccccc1`: the AC50 under setting [1] was 14.1 µM [falling, partial curve, poor fit].
For `Cc1cc(-c2nc3ncccc3o2)ccc1NC(=O)COc1ccccc1C`, under setting [1], the AC50 is 0.02 µM [falling, full curve, poor fit].
As to `O=c1c(CCc2ccccc2)nc2cnc(Nc3ccccc3)nc2n1C[C@H]1CCCO1`, the AC50 under setting [1] is 12.6 µM [falling, partial curve, poor fit].
Turning to `Cc1ccc(S(=O)(=O)N2CCC(C(=O)N/N=C/c3cccnc3)CC2)cc1`, under setting [1], the AC50 is 0.0112 µM [falling, full curve, poor fit].
Take `CN(Cc1ccco1)c1ncnc2ccc(-c3cccc(NS(C)(=O)=O)c3)cc12`: the AC50 is, setting by setting: under setting [2], 22.4 µM [falling, single point]; under setting [1], 35.5 µM [falling, single point].
With `Cc1ccc(CSCCNC(=O)/C=C/c2ccccc2Cl)cc1`, the AC50 under setting [2] was 14.1 µM [rising, single point].
On to `CCCCNC(=S)NCc1ccc2c(c1)cc(C)n2C`, for which the AC50 under setting [1] was 35.5 µM [rising, single point].
For the molecule `O=[N+]([O-])C(=C1Nc2ccccc2N1)C(Cl)=C(Cl)Cl`, the AC50 under setting [2] was 2.24 µM [falling, partial curve, poor fit].
In the case of `COCCNS(=O)(=O)c1cc(-c2nn(C)c(=O)c3ccccc23)ccc1C`, the AC50 by setting is: under setting [2], 22.4 µM [rising, single point]; under setting [1], 15.8 µM [rising, single point].
Regarding `Fc1cccc(Nc2nc(-c3ccncc3)nc3ccccc23)c1`, the AC50 under setting [1] was 2.82 µM [rising, partial curve].
Consider `CC1SCC(=O)N(CC(=O)NCCc2ccccc2)C1=O` (stereo unspecified), for which, under setting [1], the AC50 was 1.41 µM [falling, partial curve, poor fit].
Still for that read-out and setting: as for `Cc1ccccc1-n1c(=O)cc(NCc2ccc3c(c2)OCO3)[nH]c1=O`, the figure is 15.8 µM [rising, partial curve, poor fit].
The same measure, in the same setting: as for `CCOc1ccc(N2CC(NC(=O)/C=C\c3ccc4c(c3)OCO4)CC2=O)cc1` (stereo unspecified), the figure is 3.55 µM [rising, full curve, poor fit]; as for `OCCNc1nc(-c2cccnc2)nc2ccccc12`, 0.0794 µM [falling, full curve, poor fit].
Regarding `CCOC(=O)c1sc2ccccc2c1S(=O)(=O)Nc1ccc(CC)cc1`, the AC50 under setting [2] is 2 µM [rising, partial curve].
`CCOC(=O)CC1CCCCN1Cc1cn[nH]c1-c1ccc(F)cc1F` (stereo unspecified): the AC50 under setting [2] is 2.24 µM [rising, full curve, poor fit].
With `C=CCn1c(CCC(=O)Nc2ccc(C)c(Cl)c2)nnc1SCC(=O)Nc1ccccc1C`, the AC50 under setting [2] is 22.4 µM [falling, single point] and the AC50 under setting [1] was 28.2 µM [falling, single point].
Regarding `COc1ccc(C(=O)C[n+]2ccccc2/C=N/O)cc1`, the AC50 under setting [1] is 0.158 µM [rising, full curve].
On the same count and under the same terms, as for `O=C(COc1ccccc1Cl)Nc1ccc(Cl)cn1`, the figure is 6.31 µM [rising, single point].
On to `CCOc1cc(-c2noc(N)c2C#N)cc(OCC)c1OCC`, for which the AC50 was 28.2 µM [falling, single point] under setting [2] and 35.5 µM [falling, single point] under setting [1].
As to `COc1ccccc1OCCCn1cc(C#N)c2ccccc21`, the AC50 under setting [2] is 7.94 µM [falling, partial curve, poor fit] and the AC50 under setting [1] is 12.6 µM [falling, single point].
Consider `CCc1cc2cc(C)cc(C)c2nc1Cl`, for which the concentration at half-maximal activity (AC50) under setting [2] was 0.0112 µM [rising, full curve, poor fit].
`O=C(CNc1ccc(Br)cc1)NNC1=NCCC1`: under setting [1], the AC50 was 12.6 µM [rising, single point].
The same measure, in the same setting: as for `O=S(=O)(Nc1cc(F)ccc1F)c1ccc2[nH]c3c(c2c1)CCCC3`, the figure is 3.55 µM [rising, single point].
Regarding `CCn1ncc(Br)c1C(=O)N(C)C12CC3CC(CC(C3)C1)C2`, the AC50 by setting is: under setting [2], 17.8 µM [rising, single point]; under setting [1], 25.1 µM [rising, single point].
As for `C=CCN(c1ccc(C(=O)Nc2cccc([N+](=O)[O-])c2)cc1)S(C)(=O)=O`, the AC50 under setting [1] is 25.1 µM [falling, partial curve, poor fit].
As for `Cc1ccc(C)c(-n2c(C)cc(/C=N/NC(=O)c3c(C)nc4cc(C)ccn34)c2C)c1`, the AC50 by setting is: under setting [2], 12.6 µM [rising, partial curve]; under setting [1], 15.8 µM [rising, single point].

(Values after PubChem BioAssay AID1487 (National Center for Advancing Translational Sciences (NCATS), 2009).)
